Reference: article PMC4737065

Biological target: T1, FLOURY ENDOSPERM7 (FLO7) (rice (Oryza sativa)) (UniProt Q337M4)
T1 sequence: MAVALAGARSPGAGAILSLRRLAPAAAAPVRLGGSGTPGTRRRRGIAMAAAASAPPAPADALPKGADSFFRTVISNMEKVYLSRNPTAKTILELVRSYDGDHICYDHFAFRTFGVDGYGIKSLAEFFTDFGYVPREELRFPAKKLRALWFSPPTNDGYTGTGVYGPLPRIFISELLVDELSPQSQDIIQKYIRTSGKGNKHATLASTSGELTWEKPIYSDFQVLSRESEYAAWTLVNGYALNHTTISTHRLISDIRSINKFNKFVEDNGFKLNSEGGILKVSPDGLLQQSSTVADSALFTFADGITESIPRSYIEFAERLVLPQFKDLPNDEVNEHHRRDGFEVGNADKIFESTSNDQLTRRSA
Experiment: two-hybrid; yeast two-hybrid; FLO7 in pGBKT7, the tested genes in pGADT7; transformation and screening by the manufacturer's instructions (Clontech)

binding | Substance
no binding | FLO2 (rice (Oryza sativa))
no binding | FLO4 (rice (Oryza sativa))
no binding | FLO6 (rice (Oryza sativa))

Results are given in words; binding and its absence hold for the method and conditions named.
